Test results from PubChem BioAssay AID2685 (National Center for Advancing Translational Sciences (NCATS), 2010).
This is one part of the list. The main result of the screen is listed elsewhere. These columns were measured beside it and carry no call. The list favours compounds with an active or inconclusive main result. Potencies come from curve fits of mixed quality, noted in brackets.

Assay: qHTS Assay for Lipid Storage Modulators in Drosophila S3 Cells;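 on cell number change: cells counted by Cell Tracker Red CMTPX staining in the red channel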
Conditions: BODIPY lipid droplet fluorescence, 18-24 h; for cell number change: measured here: cell count max response, cells fed with added oleic acid
How it was run: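 Drosophila S3 cells loaded with oleic acid (400 uM, as added) and compounds at several concentrations; lipid droplets imaged by 488-nm laser-scanning cytometry, 500–530 nm intensity and object ratio to cell channel. Percent activity normalized to 20 uM Triacsin C.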

[1] = measured here: cell number channel AC50, cells fed with added oleic acid
[2] = measured here: lipid fluorescence (Fed channel) AC50, cells fed with added oleic acid

Structure (SMILES) | cell number change | AC50 [1] | AC50 [2]
O=C(OCc1nnc(-c2ccc(Cl)cc2)o1)c1ccncc1 | -2.45% | – | –
CN(C(=O)CCl)C1CCCc2ccccc21 (centres undefined) | 2.88% | 5.8 µM [rising, single point] | 6.51 µM [rising, single point]
COCCCNC(=O)C(F)(F)C(F)(F)C(=O)NCCCOC | -4.87% | – | 1.84 µM [falling, full curve]
CN(C1CCCCC1)S(=O)(=O)c1ccc(Cl)c(C(=O)O)c1 | -19% | – | 0.651 µM [falling, full curve, poor fit]
Cc1ccccc1NC(=O)Nc1ccccc1Br | 144% | – | –
COc1ccc(S(=O)(=O)NCCSC(C)(C)C)cc1Cl | -23.6% | – | 0.116 µM [falling, single point]
CCOC(=O)C(C)Oc1ccc2c(C)cc(=O)oc2c1C(C)=O (centres undefined) | 40.5% | – | –
CC(=O)Nc1ccc(S(=O)(=O)Nc2nnc(C3CCCCC3)s2)cc1 | – | – | 4.61 µM [falling, partial curve]
CCOC(=O)c1c(NC(=O)Cn2nc(C(F)(F)F)cc2C)sc2c1CCC2 | 7.62% | – | 29.1 µM [rising, partial curve, poor fit]
O=C(c1ccc2ccccc2c1)N1CCN(c2ccccn2)CC1 | -1.59% | – | 29.1 µM [rising, single point]
CCOc1ncccc1C(=O)Nc1ccc2c(c1)OCO2 | 109% | 0.82 µM [rising, partial curve, poor fit] | –
Cc1cc2c(NC3CCCCC3)ncnc2s1 | -22.1% | – | –
COc1ccc(C(=O)CSc2nnc(-c3cnccn3)n2Cc2ccco2)cc1 | 9.05% | – | –
COc1ccc(C(=O)Nc2cnn(Cc3ccc(Cl)cc3)c2)cc1OC | -0.918% | – | 2.31 µM [rising, single point]
COc1ccc(N2C(=O)CC2(/C=C/c2ccccc2OC)C(=O)NC2CCCC2)cc1 (centres undefined) | -27.6% | – | 14.6 µM [falling, partial curve]
Cc1nc2ccc(C(=O)Nc3ccc4nc[nH]c4c3)cc2[nH]1 | 0.189% | – | 3.26 µM [rising, partial curve, poor fit]
COc1nc(C)ccc1-c1noc(-c2ccccn2)n1 | – | 2.06 µM [rising, partial curve] | 2.06 µM [rising, partial curve]
CCCCCN(C(=O)CCC(=O)OCC(=O)NCc1ccc(OC)cc1)c1c(N)n(CCCC)c(=O)[nH]c1=O | -13.9% | 0.651 µM [rising, partial curve, poor fit] | 23.1 µM [falling, single point]
O=C(CSc1nccc2ccccc12)N1CCN(c2ccccn2)CC1 | 92% | 2.91 µM [rising, full curve] | 5.17 µM [rising, partial curve]
Cc1ccc(-n2nnnc2SCC(=O)N2CCN(C(=O)c3ccco3)CC2)c(C)c1 | 53.1% | 29.1 µM [rising, single point] | 29.1 µM [rising, single point]
O=C(NC1CCCCC1)N(CCO)Cc1cc2cc3c(cc2[nH]c1=O)OCCO3 | 39.1% | 16.4 µM [rising, single point] | –
C=CCn1c(SCC(=O)Nc2c(C)n(C)n(-c3ccccc3)c2=O)nc2ccccc2c1=O | 32.1% | 9.2 µM [rising, single point] | 0.00461 µM [falling, full curve, poor fit]

Structure (SMILES) | cell number change | AC50 [1] | AC50 [2]
CCN(CC(=O)Nc1ccccc1Br)C1CCCCC1 | 3.17% | – | –
Cc1ccc(Oc2ccccc2/C=N/O)cc1 | – | – | 6.51 µM [falling, single point]
Cc1ccc(C(c2nnnn2CS(=O)(=O)c2ccc(C)cc2)N2CCC(C)CC2)cc1 (centres undefined) | – | – | 0.82 µM [falling, full curve]
Cc1nc(NC(=O)c2ccc([N+](=O)[O-])cc2Cl)sc1C(=O)N(C)C | – | – | 1.3 µM [rising, full curve]
Cc1ccc(CN2CCN(Cc3cc(=O)c4ccccc4[nH]3)CC2CCO)o1 (centres undefined) | 4.34% | – | 7.31 µM [rising, single point]
CCOC(=O)C(=CNc1ccccc1Cl)C(=O)OCC | 1.46% | – | –
CC(C)c1ccc(NC(=O)CN2CCN(C(=O)C3CCCO3)CC2)cc1 (centres undefined) | 22.2% | – | 4.61 µM [rising, full curve]
CC(=O)c1cccc(NC(=O)C2COc3ccccc3O2)c1 (centres undefined) | 2.64% | – | –
O=C(NC1CC1)c1ccc(Cl)c(S(=O)(=O)N2CCOCC2)c1 | 25% | – | –
COCCNC(=O)c1ccc(NC(=O)C2(c3ccccc3)CCCC2)cc1 | -13.5% | – | 0.58 µM [falling, single point]
COCc1ccc(CN2CCCC(CCC(=O)NCc3cccc(OC)c3)C2)o1 (centres undefined) | 36.3% | 29.1 µM [rising, single point] | –
Cc1ccc2cc(C3CC(c4ccco4)=NN3C(=O)CCC(=O)O)c(Cl)nc2c1 (centres undefined) | -24.9% | – | –
CCC1CCCCN1C(=O)COc1ccc2c3c(c(=O)oc2c1)CCC3 (centres undefined) | -1.23% | 0.82 µM [falling, full curve] | 0.259 µM [falling, full curve]
COc1ccc(C(=O)c2ccccc2)c2c(O)ccc(C(=O)c3ccccc3)c12 | 2.73% | 0.164 µM [falling, full curve, poor fit] | –
C=C1C2(C(=O)NCc3ccco3)CCC(C2)C1(C)C (centres undefined) | -0.376% | – | 0.116 µM [falling, full curve]
O=C(O)c1cc(S(=O)(=O)Nc2cc(Cl)ccc2Oc2ccccc2)ccc1O | -18.7% | – | 0.184 µM [rising, full curve]
CC(C)NS(=O)(=O)c1ccc(CCC(=O)NCc2cccnc2)cc1 | -1.21% | – | 0.92 µM [falling, full curve, poor fit]
CCNS(=O)(=O)c1ccc(CCC(=O)NCc2ccccn2)cc1 | -7.3% | – | 29.1 µM [rising, single point]
O=c1[nH]c2ccccc2nc1N1CCOCC1 | 19.4% | – | –
C=CCN1c2ccccc2[C@]23C[C@@H](C(=O)OC)N(C(=O)c4cc(C)oc4C)C2=NC(C(=O)OC)=C(C(=O)OC)[C@H]13 | -62.8% | 1.16 µM [falling, full curve] | 1.03 µM [falling, full curve]
CSc1ccccc1OCc1cc(C(=O)N2CCN(C3CCCC3)C(=O)C2)no1 | -15.6% | – | 2.06 µM [rising, partial curve, poor fit]
COc1ccccc1N1CCN(C(=O)c2ccc3[nH]c(C)c(C)c3c2)CC1 | 2.29% | – | 29.1 µM [falling, single point]

Part of the list above in order of molecular weight, largest number first:
Structure (SMILES) | cell number change | AC50 [1] | AC50 [2]
O=C(O)c1cc(S(=O)(=O)Nc2cc(Cl)ccc2Oc2ccccc2)ccc1O | -18.7% | – | 0.184 µM [rising, full curve]
COCCNC(=O)c1ccc(NC(=O)C2(c3ccccc3)CCCC2)cc1 | -13.5% | – | 0.58 µM [falling, single point]
Cc1ccccc1NC(=O)Nc1ccccc1Br | 144% | – | –

More records follow.

Structure (SMILES) | cell number change | AC50 [1] | AC50 [2]
CC(C)(C)N(Cc1ccccc1)C(=O)c1cccs1 | -7.94% | – | 0.13 µM [falling, full curve, poor fit]
Cc1ccc(OC[C@H](O)[C@H](C)NC(C)C)c2c1CCC2 | -35.3% | 16.4 µM [falling, single point] | –
CCOc1ccc(CN(C)C(=O)NNC(=O)c2ccc(C)cc2)cc1OC | 12.7% | – | –
COC(=O)c1cccc(Cn2c(Cl)c(/C=N/NC(=O)c3ccco3)sc2=O)c1 | 3.54% | – | –
COc1ccc2nc(NCCO)[nH]c2c1 | -45% | 20.6 µM [falling, single point] | 1.46 µM [falling, full curve]
C(=N\c1nccs1)/c1c[nH]c2ccccc12 | 15.4% | – | 3.26 µM [falling, single point]
O=S1(=O)CCC(SCc2nc3sccn3c2Br)C1 (centres undefined) | 9.3% | – | –
CCCc1c(C(=O)N/N=C/c2ccccc2C(F)(F)F)nnn1-c1nonc1N | 44.7% | 29.1 µM [rising, single point] | 20.6 µM [falling, partial curve]
CC1Cc2ccccc2N1C(=O)COc1cccc(-n2cnnn2)c1 (centres undefined) | 2.17% | 0.326 µM [rising, full curve] | 0.92 µM [rising, partial curve]
CC1Cc2ccccc2N1C(=O)COC(=O)Cc1ccc(F)cc1 (centres undefined) | – | 0.731 µM [falling, full curve] | –
O=C(Nc1ccccc1C(=O)Nc1ccccn1)c1ccccc1F | -3.86% | – | 29.1 µM [falling, single point]
CC1CCCN(CCOCCOc2ccc(Br)cc2Cl)C1 (centres undefined) | -2.2% | – | 0.092 µM [rising, full curve, poor fit]
CCCN1CCN(C(=O)C2CCN(c3nnc(C)c4c(C)n(-c5ccc(C)cc5)nc34)CC2)CC1 | 50% | – | 29.1 µM [falling, single point]
CCOC(=O)c1ccc([N+](=O)[O-])cc1NC(C)=O | 15.1% | – | 32.6 µM [rising, single point]
Cc1cc(Br)c2c(c1)C(O)(N1CCCCC1C)C(=O)N2 (centres undefined) | -58% | 16.4 µM [falling, single point] | 29.1 µM [falling, single point]
CC1CC(C)CN(CCC(=O)Nc2cccc(Cl)c2)C1 (centres undefined) | 3.38% | – | –
Cc1ccc2nc(-c3ccccc3)cc(C(=O)Nc3cccnc3)c2c1 | -5.78% | – | 25.9 µM [falling, single point]
Cc1ccc(S(=O)(=O)NCCC(=O)Nc2cccc(S(N)(=O)=O)c2)cc1C | 25.6% | – | 0.206 µM [falling, single point]
Cc1ccc(NC(=O)C2CCCN2C(=O)NC2CCCCC2)cc1F (centres undefined) | 33.8% | 23.1 µM [rising, partial curve, poor fit] | 0.13 µM [rising, full curve, poor fit]
Nc1cc(C(=O)OCC(=O)c2ccc(CC(=O)N3CCOCC3)s2)ccc1Cl | 3.41% | – | –

Structures shown so far with an aryl methoxy group (eleven):
Structure (SMILES) | cell number change | AC50 [1] | AC50 [2]
COc1ccc(S(=O)(=O)NCCSC(C)(C)C)cc1Cl | -23.6% | – | 0.116 µM [falling, single point]
COc1ccc(C(=O)CSc2nnc(-c3cnccn3)n2Cc2ccco2)cc1 | 9.05% | – | –
COc1ccc(C(=O)Nc2cnn(Cc3ccc(Cl)cc3)c2)cc1OC | -0.918% | – | 2.31 µM [rising, single point]
COc1ccc(N2C(=O)CC2(/C=C/c2ccccc2OC)C(=O)NC2CCCC2)cc1 (centres undefined) | -27.6% | – | 14.6 µM [falling, partial curve]
COc1nc(C)ccc1-c1noc(-c2ccccn2)n1 | – | 2.06 µM [rising, partial curve] | 2.06 µM [rising, partial curve]
CCCCCN(C(=O)CCC(=O)OCC(=O)NCc1ccc(OC)cc1)c1c(N)n(CCCC)c(=O)[nH]c1=O | -13.9% | 0.651 µM [rising, partial curve, poor fit] | 23.1 µM [falling, single point]
COCc1ccc(CN2CCCC(CCC(=O)NCc3cccc(OC)c3)C2)o1 (centres undefined) | 36.3% | 29.1 µM [rising, single point] | –
COc1ccc(C(=O)c2ccccc2)c2c(O)ccc(C(=O)c3ccccc3)c12 | 2.73% | 0.164 µM [falling, full curve, poor fit] | –
COc1ccccc1N1CCN(C(=O)c2ccc3[nH]c(C)c(C)c3c2)CC1 | 2.29% | – | 29.1 µM [falling, single point]
CCOc1ccc(CN(C)C(=O)NNC(=O)c2ccc(C)cc2)cc1OC | 12.7% | – | –
COc1ccc2nc(NCCO)[nH]c2c1 | -45% | 20.6 µM [falling, single point] | 1.46 µM [falling, full curve]
